Data from patent US20250281480A1, “PHARMACEUTICAL DRY POWDER INHALATION FORMULATION” (Bayer Aktiengesellschaft, priority 2021, published 2025).
Where “and” joins values, the source holds several entries; their conditions need not be identical. Identical values can stand only once. Further values from the same series stand in other lists.

System: anesthetized PAH minipigs
Assay: PAH minipig, intratracheal application of dry powder formulations and of different hydrates (PAP, BP)
Type: in vivo, Göttingen Minipigs
Details: 375 μg/kg i.t.; for BP / PAP: % vs. prevalues, each animal
Method: Healthy Göttingen Minipigs® Ellegaard (Ellegaard, Denmark) of both sexes and having a weight of 2-6 kg were used. The animals were sedated by i.m. administration of about 25 mg/kg ketamine and about 10 mg/kg azaperone. Anaesthesia was initiated by i.v. administration of about 2 mg/kg ketamine and about 0.3 mg/kg midazolam. Maintenance of anaesthesia was by i.v. administration of about 7.5-30 mg/kg/h ketamine and about 1-4 mg/kg/h midazolam (rate of infusion 1-4 ml/kg/h) and about 150 μg/kg/h pancuronium bromide (for example Pancuronium-Actavis). After intubation, the animals were ventilated by the ventilator at a constant respiratory volume (10-12 ml/kg, 35 breaths/min; Avea®, Viasys Healthcare, USA, or Engström Carestation, GE Healthcare, Freiburg, Germany) such that an end-tidal CO2 concentration of about 5% was achieved. Ventilation was performed with room air, enriched with about 40% oxygen (normoxia). For the measurement of the haemodynamic parameters such as pulmonary arterial pressure (PAP), blood pressure (BP) and heart rate (HR), catheters were inserted into the carotid artery to measure the blood pressure, and a Swan-Ganz® catheter was introduced in a flow-directed manner via the jugular vein into the pulmonary artery. The haemodynamic signals were recorded and evaluated by means of pressure transducers (Combitransducer, B. Braun, Melsungen, Germany)/amplifiers and Ponemah® as data acquisition software.
About 0.3-0.75 μg/kg/min of 9,11-didesoxy-9α,11α-epoxymethanoprostaglandine F2α (U-44069; Sigma, cat. no. D0400, or Cayman Chemical Company, cat. no. 16440), dissolved in physiological saline, were infused to achieve an increase of the mean pulmonary arterial pressure to values of over 25 mmHg.
After characterization of the effects of comparative example 11 after nebulization of compound solutions, in a further step the effects of crystalline forms of comparative example 11, e.g. sesquihydrate, e.g. example 6e on PAP and BP after inhaled application of different dry powder lactose formulations (table 52) were studied in anesthetized PAH minipigs.
As reference pure Lactose vehicle was applied in the beginning of each experiment.

With O.O=C(O)c1ccc(CCN(CCc2ccccc2OCc2ccc(-c3ccc(C(F)(F)F)cc3)cc2Cl)[C@H]2CCCc3nc(C(=O)O)ccc32)cc1.O=C(O)c1ccc(CCN(CCc2ccccc2OCc2ccc(-c3ccc(C(F)(F)F)cc3)cc2Cl)[C@H]2CCCc3nc(C(=O)O)ccc32)cc1 [Example 6a, (5S)—{[2-(4-Carboxyphenyl)ethyl][2-(2-{[3-chloro-4′-(trifluoromethyl)biphenyl-4-yl]methoxy}phenyl)-ethyl]amino}-5,6,7,8-tetrahydroquinoline-2-carboxylic Acid Semihydrate] the “BP (mean)” value (time −10, per animal) was 99 mmHg and 85 mmHg and 86 mmHg, the “PAP(mean)” value (time −10, per animal) was 38.7 mmHg (2×) and 40.6 mmHg and the BP (time 50) was 99.6% and 98.4% and 100.6%. The PAP (time 50) was 99.3% and 98.7% and 98.9%, the BP (time 70) was 98.4% and the PAP (time 70) was 96.1% and 97.0%. For the same compound, the BP (time 80) was 102.6% and 99.7% and 101.8%, the PAP (time 80) was 83.4% and 94.5% and 91.2% and the BP (time 90) was 101.6% and 102.2% and 104.0%. The PAP (time 90) was 73.4% and 89.2% and 88.7%, the BP (time 100) was 100.6% and 101.0% and 107.4% and the PAP (time 100) was 69.0% and 85.0% and 84.7%. For the same compound, the BP (time 110) was 99.6% and 99.7% and 111.9%, the PAP (time 110) was 66.5% and 82.4% and 82.1% and the BP (time 120) was 99.6% and 99.7% and 108.6%. For the same compound, the PAP (time 120) was 64.4% and 80.8% and 79.7%, the BP (time 130) was 98.6% and 102.2% and 109.7% and the PAP (time 130) was 62.8% and 79.9% and 76.7%. The BP (time 140) was 99.6% and 103.5% and 110.8%, the PAP (time 140) was 61.8% and 78.7% and 75.7% and the BP (time 150) was 97.6% and 103.5% and 109.7%. The PAP (time 150) was 60.9% and 78.0% and 74.3%, the BP (time 160) was 96.6% and 102.2% and 109.7% and the PAP (time 160) was 59.9% and 77.1% and 73.1%. The BP (time 170) was 95.6% and 99.7% and 107.4%, the PAP (time 170) was 58.6% and 76.7% and 72.3% and the BP (time 180) was 94.6% and 99.7% and 106.3%. The PAP (time 180) was 58.0% and 75.4% and 71.8%, the BP (time 190) was 94.6% and 108.5% and 105.2% and the PAP (time 190) was 59.5% and 78.4% and 70.7%. The BP (time 200) was 92.6% and 107.3% and 104.0%, the PAP (time 200) was 60.5% and 76.8% and 71.1% and the BP (time 210) was 90.6% and 102.2% and 102.9%. For the same compound, the PAP (time 210) was 60.6% and 75.5% and 70.8%, the BP (time 220) was 89.6% and 99.7% and 100.6% and the PAP (time 220) was 60.3% and 75.1% and 70.3%. The BP (time 230) was 87.6% and 98.4% and 100.6%, the PAP (time 230) was 58.7% and 74.1% and 69.1% and the BP (time 240) was 87.6% and 97.2% and 98.4%. For the same compound, the PAP (time 240) was 58.9% and 74.2% and 68.0%, the BP (time 250) was 85.5% and 95.9% and 96.1% and the PAP (time 250) was 59.0% and 72.7% and 67.9%. The BP (time 260) was 85.5% and 95.9% and 95.0%, the PAP (time 260) was 58.8% and 72.5% and 68.0% and the BP (time 270) was 85.5% and 95.9% and 98.4%. For the same compound, the PAP (time 270) was 59.6% and 72.4% and 67.3%, the BP (time 280) was 85.5% and 94.6% and 95.0% and the PAP (time 280) was 59.3% and 72.6% and 67.8%. The BP (time 290) was 84.5% and 94.6% and 93.9%, the PAP (time 290) was 58.8% and 72.6% and 66.7% and the BP (time 300) was 83.5% and 97.2% and 92.7%. For the same compound, the PAP (time 300) was 57.9% and 72.2% and 67.1%.
